PubChem BioAssay AID1508597 – Cure First – 2020
Screen: 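Genes whose silencing sensitises or protects ovarian cancer cells against rucaparib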 (primary screen). Cell system: human ovarian carcinoma lines grown from tumours: OCI-P5x (papillary serous) and OCI-C5x (clear cell). Reagent: siRNA pool against human genes, 1.25 pmol siRNA per well. Time to read-out: 72 h or 96 h, depending on the cell culture. Treatment: rucaparib 20 µM (about IC30) or vehicle, present until read-out. Rucaparib or vehicle: Vehicle. Cell line: OCI-C5x (clear cell). Measured: 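ATP luminescence measured at 72 or 96 h according to the culture, then normalised and expressed as percent viability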. Direction: viability, normalised: higher = more viable cells remaining. Rule for the call: 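a well counts as a hit if its normalised viability is under 80 percent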. Calls: active = viability under 80%; inactive = viability 80% or more.
Shown is a random part of the about 2,100 reagents, under one of the conditions tested. 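Calls flag viability under 80% in either arm, not effects specific to rucaparib; the reference for percent is not stated.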 Some reagents were tested in more than one well and are listed for each. Not given: the 100% reference.

gene,technical replicate,"viability, normalised (%)",outcome
PFKL (GeneID 5211),1,77.2,active
PFKL (GeneID 5211),2,64.4,active
PFKL (GeneID 5211),3,50.7,active
AAK1 (GeneID 22848),1,44.5,active
AAK1 (GeneID 22848),2,44.8,active
AAK1 (GeneID 22848),3,57.7,active
CACNA1A (GeneID 773),1,43.9,active
CACNA1A (GeneID 773),2,55.5,active
CACNA1A (GeneID 773),3,43.5,active
XRCC3 (GeneID 7517),1,56,active
XRCC3 (GeneID 7517),2,67.8,active
XRCC3 (GeneID 7517),3,55.8,active
CHTOP (GeneID 26097),1,33.4,active
CHTOP (GeneID 26097),2,44.9,active
CHTOP (GeneID 26097),3,38.3,active
JADE2 (GeneID 23338),1,21.1,active
JADE2 (GeneID 23338),2,17.2,active
JADE2 (GeneID 23338),3,27,active
LIG1 (GeneID 3978),1,53,active
LIG1 (GeneID 3978),2,60.9,active
LIG1 (GeneID 3978),3,59.3,active
NHERF1 (GeneID 9368),1,22.5,active
NHERF1 (GeneID 9368),2,17.1,active
NHERF1 (GeneID 9368),3,24.8,active
NEK10 (GeneID 152110),1,62.2,active
NEK10 (GeneID 152110),2,70.6,active
NEK10 (GeneID 152110),3,65.9,active
TK2 (GeneID 7084),1,43,active
TK2 (GeneID 7084),2,44.2,active
TK2 (GeneID 7084),3,41.2,active
SUMO1 (GeneID 7341),1,41.2,active
SUMO1 (GeneID 7341),2,70.3,active
SUMO1 (GeneID 7341),3,31.6,active
DLG4 (GeneID 1742),1,47.3,active
DLG4 (GeneID 1742),1,41.8,active
DLG4 (GeneID 1742),2,42.6,active
DLG4 (GeneID 1742),2,43.2,active
DLG4 (GeneID 1742),3,45,active
DLG4 (GeneID 1742),3,51.9,active
DEK (GeneID 7913),1,27.7,active
DEK (GeneID 7913),2,35.2,active
DEK (GeneID 7913),3,20.2,active
ASF1B (GeneID 55723),1,42.6,active
ASF1B (GeneID 55723),2,36.2,active
ASF1B (GeneID 55723),3,32.3,active
DQX1 (GeneID 165545),1,45.1,active
DQX1 (GeneID 165545),2,40.1,active
DQX1 (GeneID 165545),3,46.3,active

Records listed so far whose gene name starts with S or s (3):
gene,technical replicate,"viability, normalised (%)",outcome
SUMO1 (GeneID 7341),1,41.2,active
SUMO1 (GeneID 7341),2,70.3,active
SUMO1 (GeneID 7341),3,31.6,active

Continued:
gene,technical replicate,"viability, normalised (%)",outcome
PDIK1L (GeneID 149420),1,52,active
PDIK1L (GeneID 149420),2,75.8,active
PDIK1L (GeneID 149420),3,70.2,active
CA14 (GeneID 23632),1,59.3,active
CA14 (GeneID 23632),2,55.8,active
CA14 (GeneID 23632),3,50.4,active
DCLK2 (GeneID 166614),1,59.8,active
DCLK2 (GeneID 166614),2,60.7,active
DCLK2 (GeneID 166614),3,56.2,active
TAOK1 (GeneID 57551),1,39.4,active
TAOK1 (GeneID 57551),2,56,active
TAOK1 (GeneID 57551),3,43.6,active
MAPK3 (GeneID 5595),1,67.8,active
MAPK3 (GeneID 5595),2,62.9,active
MAPK3 (GeneID 5595),3,64.7,active
POU5F1B (GeneID 5462),1,55.5,active
POU5F1B (GeneID 5462),2,50.8,active
POU5F1B (GeneID 5462),3,47.6,active
SOD2 (GeneID 6648),1,47.6,active
SOD2 (GeneID 6648),2,44.1,active
SOD2 (GeneID 6648),3,45.7,active
CHAF1B (GeneID 8208),1,42.4,active
CHAF1B (GeneID 8208),1,44.8,active
CHAF1B (GeneID 8208),2,37.5,active
CHAF1B (GeneID 8208),2,68.1,active
CHAF1B (GeneID 8208),3,47.3,active
CHAF1B (GeneID 8208),3,47.6,active
